In paper PMC6385987:
Numbering of substitutions follows the chain as printed. No constants are given. Whether binding was seen depends on the method and setting. Binding seen in cells or lysates may run through a third protein. These calls come from enrichment with a bait or labelling near it, and not all partners need be listed. No binding means not detected with the bait. Sequences can lack the tags named with a protein.

B1: CG2941/Gaulos (Drosophila Gemin4a), endogenous (protein, UniProt Q9W4N9 1-911)
chain: MITAKKHPLDNCQLFVQLKKLFHDYNEKVQRLKDMIYWSGNDEHIAKICDQVTDLLVEHDLIIQPPDTMDPCAMNHLRGLLVYLVLNTAHDDIQCESQWSANVMHLCNQLPPIPLFLTIAIAVNCCLMEPLEEFLACGPRWLTIQYFEAFNEALSVINSDCVETLPLLSAALRAAGRAIVNCNLPAENKQLLRQIACMEHRHILDSKQRLHTLPRPSTRKIYLAKAMDHLIEVLLYTLNDPLKREKPNCFAVYSQITEDISDSNSSDPMPDLRHFAQILLDVLQRIFQLVSVDTYMYWHEMKSKSALYNCQELICRQTAELLKVLQSDKLLGEHPVCKQMQSFADAAKTLEQRVAEMRIGELLAFIDSGMATNEELLAGLDNLFSRFIAFGSDECLETMANHLIMLTKKHAQIILSFLGQVVESEMVVEDEGISVTEVNQGDDEDETSSNDDYEELLSLVLRPLFMQLNVEDKMEVLLLRDEQNVTQGFNFKAPDHRERRIRFFNQLDYNKRFPITEFLVLCFENARQTWIDFSHLGVTHTRFSKLFWHIAQSCPKHAAFHISACADNILVNEQLLQKPYALQFTLYLYGHRQILNGLYTSARQLCVSLKDGRCPYGEDELRQAQNRFLDACAYGLAKFIEPMNLPSLQLILKLLKQISLGESNLITRGTAELNALEKEHPKLENGDDAPAVKVAKHYTYLHASLPEWRLKHWKLISHVMKTIDALRWDLATFEDFRVDNLELAVWYWQDGLSHLTFLGTEFRQRILNQVSKLKHKDFWIIYLKEDTLKDTRSFLKLLTQSSAQEANDLFNKLLKKRADCAVMGDLSDAVVKVNSESAFMAFRFLFREYLIAFRSHAKHNKTITKRQHWDHLMAVVAKAPFSIRNEIMELASKAFAVRFGINIQEQQAAKC
B2: CG14164 (Hezron/Lsm12b) (protein, UniProt Q9VT67 1-186)
chain: MSSLAPCFTVGSIVRCKTCFGDNISGEVVAFDLGVKMLIMKCPSSNGGGDEQTTCNVTIVNLSLCMDIEIVKEAIPPAEVQQPEPIDLPMIRERYRYATEHRTLSCRSYHPNASPFGQALFRLLVKRFGDPAIIWQNKGDQVAINILRQVVIDAPYATENIRYLDWNPKLAICVQEVVQNFCSKQF
B3: CG2371 (Valette/CommD10) (protein, UniProt Q9VYV9 1-238)
chain: MSINWIKITERAREGIKIINALPYETFTTVLFYTHRQMSPSVASASATSSTVGTSVTTTGRVDSSTEENPTSNTEPEYTLEELERLVGVPRQDFLLLIKTFSYILRRISTFIIKPSLLQRELREKLQLEDEAKIDAILRLWVRETTPIMNNLASKRYESNVIEDVAWKLNMEISSHCQQREKTPLAVLQMKTAVGEDINIEMTQPELMELYNQFESIQGELDAMLAMKTTGATAPGNQ
B4: CG31950 (Sabbat/Naa38) (protein, UniProt Q8IPZ7 1-121)
chain: MTELSITGQQVMPPPACTPPEPFRITTNAPHQMNDASLTPGRRKLQKWLGRVLRIVITDGRVLVGFFNCTDRDANIVLSMCAEYLVEGQEPRLLGNVMVPGQHIVSLSIDEPDPQSSLLVQ
B5: Gemin5/Rig (Drosophila rigor mortis) (protein, UniProt Q86BY9 1-1235)
chain: MNSQVMYHNVPTPPGNVSLAAAAPDGGLLYAGIRCINYISAPPANGEQPQVVTMSTRINILALDVSPMWGLGNGGPTKPFAIVGDDLSVQVWDCALGEAVIGHKAHQHQHEARDVRVVHHTTNSVLMSYLANGNILSMDASDLVIYCVASNTYCRRSTFISPRNHQLTMVRCSPYNDNLFAVGTAMGNVLVCDLRKMNIVYKFHGHKAPICGLAWREVPAAEDEKTNNLALSAEEWRSRNGGQEEKPKTKPPPLTKSKAAESDDPFDIYNFDHLEYEFGAPIAERRRKSSEDCGGEFVGLEKPAGAAVLDFVEACESVKAELLASRQEDKTQHVEVTLHDCEPTKPTGPLSDASTISNKNDASDSTEGSLEVIQYSSSSDDAVIVDGEAAKPKREVLHHIYHQAEVHASGTPQTKSEPQSNLQVVPAISAETISLTSVNSTHLETLLVSIDGDEVMMIWNTNTGAHAGKNYSKSKTAGKLNNVYWLNNHVIVSLSRHQLFFWSVEFERKMLRYKISKDKSHSCHLQDIVSFACDSSKEMIWLCRNNRQIGMMNPKTGRMADFYGTVAFGVRAMAECPDDMNKIALGCSDRRVAFFDISKLTTSCLPIDSVYVSSNVYCLAWSPNCLELAFGTFDGTVGILDVERMKVKTHLRTPHKKEVYSLVWQDHFIYFIVNRVLGFFDLRKSKIEPTIVNCISRPSYLSIRDSFLFVGTDDGLLQIHERDSGMEKSWSPFIRQSALFARYVTDIAWCPLDSNKFAVSGNDRSVYVMEFQPTERNWKTLHTFTANTEKASITSMRWSHTQKHLLLTFHIEGKVCLWNCNAPEKPPLTITYHCPMWCGMFLPTNENIIMCSGKALSVELIDIKDALEGDEKSICPKVDALLNVKWASKSLTQPYAPVLTAAEKKRQRRDQRKAAAKLEVDVANKDQKKIQESVTAVIDNPTNDKCTQETPVEEMLEALSLDKEQNNRSAKECPKCKEQSPDSFTHSRTCLYLTQKELNKSALEKLAIVLTEDSAKIDKSVLISKLFSSKVMAKELIATELTNLKHSNTKDIAPLCLAMSTFKLREELEQHIANKTLTERHVSLAPSVSFTLWQDCCRAYAKQMEEKGYIMHAATYLFSQGMQSEAIKLFLANEYYKEALVHARICLPATDPLIKTVINNWLEHLEGTGNFAAAALICVLDNEMLRGYSYLRKYRNCTPEIADLMDQIKRIGQLGGVLDGCAPNEPIHNGSTAEH
B6: CG32786 (Drosophila Gemin4b), endogenous (protein, UniProt Q8IRT0 1-911)
chain: MITAEKHPLDNCQLFVQLKKIFHDNNEQAKCLKDMIYWSGNDEHIEKICDQVTDLLEEHDLIIQPPDTMDPFAMNQLRGLLVYLVLNTAHDYFLCKSQWSANVMHLCNQLPPIPLFLTIAIAVNCCLMEPLEEFLACGPRWLTIQYFEAFNEALSVINSDCVETLPLLSAALRAAGRAIVNCNLPAENKQLLRQIACMEHRHILDSKQRLHTLPRPSTRKIYLAKAMDHLIEVLLYTLNDPLKREKPNCFAVYSQITEDISDSNSSDPMPDLRHFAQILLDVLQRIFQLVSVDTYMYWHEMKSKSALYNCQELICRQTAELLKVLQSDKLLGEHPVCKQMQSFADAAKTLEQRVAEMRMGELLVFLDSGMATDEELLAGLDNLFSRFIAFGNDECVETMANHLIMLTKKHAQIILSFLGQVVESEMVVEDEGISVTEVNQGDDEDETSSNDDYEELLSLVLRPLFMQLNVEDKMEVLLLRDEQNVTQGFNFKAPDHRERRIRFFNQLDYNKRFPITKFLVLCFENARQTWIDFSHLGVTHTRFSKLFWHIAQSCPKHAAFHISACADNILVNEQLLQKPYALQFTLYLYGHRQILNGLYTSARQLCVSLKDGRCPYGEDELRQAQNRFLDACAYGLAKFIEPMNLPSLQLILKLLKQISLGESNLITRGTAELNALEKEHPKLENGDDAPAVKVAKHYTYLNASLPEWRLKHWKLISHVMKTIDALRWDLATFEDFRVDNLELAVWYWQDGLSHLTFLGTECRQRILNQVNSLKHKGFWLIYLKEDTLKDTRSFLKLLTQSSAQEANDLFNKLLKKRADCAVMGDLSDAVVKVNSESAFMAFRFLFREYLIAFRSHAKHNKTITKRQHWDHLMAVVAKAPFSIRNEIMKLASKAFAVRFGINIQEQQAAKC
B7: CG32783 (Drosophila Gemin4c), endogenous (protein, UniProt Q8IRS9 1-911)
chain: B6 chain with Q284R, K329N, L330M, N811K
B8: Gemin3 (Drosophila) (protein, UniProt Q9V3C4 1-1028)
chain: MEREIAHSLAGGEERSSDVAPGQVKTFEELRLYRNLLNGLKRNNFVTPTKIQAAAIPMALAKMDLIIQSKSGTGKTLIYVIAVVQSFNPNINQPHAMIVVPTRELAIQVQDTFFHLCKSFRDFKCSAFIGGTDVAKDRKRMNESRVIIGTPGRLLHLYENRVFDVSKLRLLVLDEADQLYQTKSLQHTVSKLIEAMPKNRQIIACSATYDQNLDERLAKVMDKPMLISNSERATVLLGIRQFVYELPQQNNSVEEMRLKLQILGQIFNQLPYEQAIIFASSQMRADSYKNYLTASGIDCHLISGAMEQSERLHVFEGYRNFTMRILVATDLMARGVDSPHANLVINIDPPQDHVTYLHRIGRAGRFGSKGIAITFIASKKESQRFREMSKKIATAWSVLEFPKEPMPNEFNFWDFEKYNFDYYIKEENPLQEMPMPIKENRSKENVDASSVDLENLQKDQDGKRRDPDKLPVALENVETQKELELENLPESSHNNKNLRVKEKEIVRQGKLKETNSKAGGSKTNKTERRKKSNTPSKLQKQITEVQQTPEITVNKYYMQEDIQRTADGKEYHPVNGAGNHQVPSKSNQKPVEFISPELTPTLTPLELTQEPSPTTVTPPAPPANSINNKTYCLAAPTQTSSMTIQNMVISNTVDDASSISSDSMVVCGYHSDRSYDTYYATSDEEEIWNRLMSKQRRQLKSKRGHGKRRVILYKKVFPKLKANVKRKLKKRMSSSCRSKKAHHLRKRHVYKNISLLPHMNLCHLLQKFTNQERFLKRLHKYAKNQFIDNARVGFLLDKLYKSILEMYYNSAKERKKHFKEAMKESLKSIDNYESQESSESEEEEEEEKDLKNKLSVHVTNQMDIPPMPQAAVEIGSGSESDTEDSQEYGEGEEIIVDDEDDGSDGGPNSSSGFVESQESVSSGIDTSVYETESTGASGNNSSAFFISDDESDTESLTDSEAGSNVSATGSSSQRSSVASSTYESSDDDSVTVTNVSSMQNAQSLWLQTFNMQYQFIASHVAKNLQNYY

The molecules below were run against T1, Flag-tagged SMN (Drosophila survival motor neuron protein) (Drosophila melanogaster) (UniProt Q9VV74) (assay: affinity purification with mass spectrometry; 0-12h embryo lysates of Flag-SMN flies and Oregon-R control on anti-FLAG M2 affinity gel, 2h at 4C; six washes with 100-250 mM KCl; eluted with 3XFLAG peptide; label-free mass spectrometry (Orbitrap Velos)).
T1 sequence: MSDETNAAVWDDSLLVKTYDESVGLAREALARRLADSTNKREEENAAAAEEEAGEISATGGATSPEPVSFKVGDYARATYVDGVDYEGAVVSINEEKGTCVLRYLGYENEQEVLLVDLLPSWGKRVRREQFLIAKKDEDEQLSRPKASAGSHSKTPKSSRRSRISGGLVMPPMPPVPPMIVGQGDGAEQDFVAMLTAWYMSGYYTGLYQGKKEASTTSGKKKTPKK
Gemin2 (Drosophila) was tested, and the binding was “binds”.
B1 was tested, and the binding was “binds”.
B2 was tested, and the binding was “no binding”.
For B3, the binding was “no binding”.
B4 was tested, and the binding was “no binding”.
For B5, the binding was “binds”.
In the case of B6, the binding is reported as “binds”.
For B7, the binding was “binds”.
B8 was tested, and the binding was “binds”.
